# According to the Kinase Knowledgebase extract (Sharma et al. 2016):
# By UniProt entry, the sequences of proteins in these tests, tags left out.
# UniProt P42336, whole entry, looked up: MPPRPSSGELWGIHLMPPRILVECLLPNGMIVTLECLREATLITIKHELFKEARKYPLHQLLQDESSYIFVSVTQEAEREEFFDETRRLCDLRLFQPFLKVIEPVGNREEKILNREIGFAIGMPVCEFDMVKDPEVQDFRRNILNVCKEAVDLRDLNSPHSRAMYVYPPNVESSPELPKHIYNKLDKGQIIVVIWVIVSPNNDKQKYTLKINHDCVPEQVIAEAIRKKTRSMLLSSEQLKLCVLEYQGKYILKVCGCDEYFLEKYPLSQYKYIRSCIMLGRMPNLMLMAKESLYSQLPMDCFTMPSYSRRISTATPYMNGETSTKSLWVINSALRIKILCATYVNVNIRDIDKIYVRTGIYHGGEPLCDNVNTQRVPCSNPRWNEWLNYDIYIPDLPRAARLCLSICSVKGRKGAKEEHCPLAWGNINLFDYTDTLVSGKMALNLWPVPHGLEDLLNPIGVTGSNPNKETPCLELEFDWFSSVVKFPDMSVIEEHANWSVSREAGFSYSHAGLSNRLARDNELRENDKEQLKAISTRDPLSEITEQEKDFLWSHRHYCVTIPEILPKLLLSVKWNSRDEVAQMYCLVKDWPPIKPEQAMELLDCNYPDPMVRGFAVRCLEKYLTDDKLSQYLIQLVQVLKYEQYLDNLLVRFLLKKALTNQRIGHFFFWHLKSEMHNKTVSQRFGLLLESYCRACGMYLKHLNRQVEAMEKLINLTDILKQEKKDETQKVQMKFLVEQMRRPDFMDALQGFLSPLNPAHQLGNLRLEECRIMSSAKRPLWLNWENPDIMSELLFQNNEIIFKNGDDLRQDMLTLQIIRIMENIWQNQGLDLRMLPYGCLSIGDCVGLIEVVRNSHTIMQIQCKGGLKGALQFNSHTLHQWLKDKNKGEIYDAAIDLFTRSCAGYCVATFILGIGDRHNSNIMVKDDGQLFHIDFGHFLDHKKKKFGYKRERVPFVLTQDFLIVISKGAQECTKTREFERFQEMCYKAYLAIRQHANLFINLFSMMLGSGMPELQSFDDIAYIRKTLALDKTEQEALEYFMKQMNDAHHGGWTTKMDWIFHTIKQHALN
# Target: PIK3CA (human) (UniProt P42336)
# Experiment: Inhibition of PIK3CA Kinase Activity
row,IC50,Compound
1,< 1000 nM,CC[C@@H](C)n1cnc2c(-c3cnc(N)nc3)nc(N3CCOCC3)nc21
2,< 1000 nM,CCC(C)n1cnc2c(-c3cnc(N)nc3)nc(N3CCOCC3)nc21 (stereo not drawn)
3,< 1000 nM,CC[C@H](C)n1cnc2c(-c3cnc(N)nc3)nc(N3CCOCC3)nc21
